Laboratory results reported in PubChem BioAssay AID1439 (NMMLSC, 2008).
In all, about 220,000 compounds went through this assay and about 770 (0.35%) were called active. Inconclusive results, whose numbers are uncertain, are shown with a selection of clear calls. Cut-off read from the data, not from the text of the source: active = binding response below about 49% or above about 150%; inconclusive = no clear call, values can overlap the other calls; inactive = in between.

Amino acid sequences for entries named in this document (tags omitted).
UniProt P09471, whole entry, looked up: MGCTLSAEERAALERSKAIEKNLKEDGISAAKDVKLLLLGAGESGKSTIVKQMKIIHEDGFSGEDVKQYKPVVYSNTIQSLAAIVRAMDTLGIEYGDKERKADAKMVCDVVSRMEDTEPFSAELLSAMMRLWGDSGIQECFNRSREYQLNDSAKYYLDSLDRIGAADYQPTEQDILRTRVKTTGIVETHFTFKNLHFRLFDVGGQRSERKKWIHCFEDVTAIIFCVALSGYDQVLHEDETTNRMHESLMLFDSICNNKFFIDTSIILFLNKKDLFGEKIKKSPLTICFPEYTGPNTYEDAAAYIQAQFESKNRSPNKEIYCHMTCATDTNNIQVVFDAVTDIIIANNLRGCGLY

What follows are molecules tested against Guanine nucleotide-binding protein G(o) subunit alpha (Homo sapiens) (UniProt P09471) (assay: RGS7-Galphao binding modulators, primary screen, biochemical, multiplexed bead flow cytometry (AID 1439;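 note: fluorescent Galphao held in activated GDP-AlF4 state binding bead-coupled RGS7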)). Conditions: at 10 µM, actives lie on both sides.

| SMILES | binding response (% of control) |
| --- | --- |
| Cc1oc(C(C)(C)C)cc1C(=O)NCc1ccc2c(c1)OCO2 | inconclusive: 111% |
| O=C(COC(=O)c1cc(S(=O)(=O)N2CCOCC2)ccc1O)Nc1cc(S(=O)(=O)N2CCCC2)ccc1Cl | inconclusive: 111% |
| N/C(=N\OC(=O)c1ccc(OCC(F)(F)F)nc1)c1ccc(Cl)cc1 | inconclusive: 101% |
| Cn1c(=O)c2c(nc(Cc3ccccc3)n2C)n(C)c1=O | inconclusive: -18.9% |
| COc1ccc(NC(=O)Cn2nc([N+](=O)[O-])c(Cl)c2C)cc1OC | inconclusive: 74.5% |
| Cc1cc(=O)c2ccc(C(F)(F)F)cc2[nH]1 | inconclusive: 94.6% |
| COc1cc(CCCN2C(=O)C(=O)NC[C@@H]2Cc2ccc(O)cc2)cc(OC)c1OC | inconclusive: 106% |
| CCOc1cc(CNCCSc2nnnn2C)cc(Br)c1OCc1ccc(F)cc1 | inactive: 96.5% |
| Cn1c(N)c(C(=O)COc2ccc(C#N)cc2)c(=O)n(C)c1=O | inconclusive: 113% |
| Cc1nc(CCNS(=O)(=O)c2cccnc2)cs1 | inconclusive: 98.5% |
| COc1ccc(C(C(N)=O)c2ncc(C(F)(F)F)cc2Cl)cc1OC (configuration not stated) | inconclusive: 80.7% |
| COc1cc(NC(=O)c2cc(-c3cccnc3)nc3ccc(Br)cc23)cc(OC)c1 | inconclusive: 98.8% |
| COC(=O)CNC(=O)c1cccc(Cl)c1 | inconclusive: 118% |
| Fc1ccc2c(Cl)c(-c3nnc(-c4cccs4)o3)sc2c1 | inactive: 101% |
| CC(C)C[C@@H](CSc1ccc(Br)cc1)N1CCN(CC(C)C)CCC1=O | inconclusive: 102% |
| O=C1c2ccccc2C(=O)c2[nH]cnc21 | inconclusive: 82.1% |
| CN(Cc1cnccn1)Cc1ccccc1OCC(O)CN1CCc2ccccc2C1 (configuration not stated) | inactive: 98.2% |
| CSc1ccc(/C=N/N2CCN(c3ccccc3)CC2)cc1 | inconclusive: 80.6% |
| CC1CCN(S(=O)(=O)c2cccc(C(=O)NCc3cccs3)c2)CC1 | inactive: 100% |
| Cn1nc(C(=O)OCc2ccccc2F)c2ccccc2c1=O | inconclusive: 105% |
| CN(Cc1nc(-c2cnccn2)no1)Cc1n[nH]c2c1CCCCC2 | inconclusive: 105% |
| COc1cc(NC(=O)c2ccc(CNc3c(N4CCCC4)c(=O)c3=O)cc2)cc(OC)c1OC | inconclusive: 86% |
| Cc1onc(-c2c(F)cccc2Cl)c1C(=O)c1ccccc1O | inconclusive: 393% |

| SMILES | binding response (% of control) |
| --- | --- |
| N#C/C(=C/Nc1ccccc1C(=O)O)C(N)=O | inconclusive: 65.9% |
| CC1=NNC(=O)C1CC(=O)N/N=C(\C)c1cccs1 (configuration not stated) | inactive: 89.4% |
| CCCCN1C(=O)N(C)C2NC(=S)NC21 (configuration not stated) | inconclusive: 91.6% |
| CS(=O)(=O)Nc1cccc(S(=O)(=O)N2CCN(C(=O)c3ccccc3)CC2)c1 | inconclusive: 129% |
| COC(=O)c1ccc(COC(=O)c2ccc(SC)cc2OC)cc1 | inactive: 96% |
| COc1ccc(/C=C2/S/C(=N/S(=O)(=O)Cc3ccccc3)NC2=O)cc1OC | inconclusive: 102% |
| Cc1ccc(/C=N/N=C2/NC(=O)C(CC(=O)N3CCOCC3)S2)cc1 (configuration not stated) | inactive: 106% |
| CN1N=C2c3ccccc3CCC2C1c1ccc(F)cc1 (configuration not stated) | inconclusive: 111% |
| C#CCn1c(=NC(=O)c2cc(-c3cccs3)nc3ccccc23)sc2cc(S(N)(=O)=O)ccc21 | active: 34.1% |
| CCNc1cc(Nc2c(C)n(C)n(-c3ccccc3)c2=O)c([N+](=O)[O-])c2nonc12 | inconclusive: 87.7% |
| COc1ccc(NC2(c3ccc(Cl)cc3)C(=O)c3ccccc3C2=O)cc1 | inactive: 100% |
| COc1ccc(/C=C/C(=O)N(Cc2cccs2)C2CCS(=O)(=O)C2)cc1 (configuration not stated) | inconclusive: 107% |
| O=C(CSc1ccccc1)Nc1cc(S(=O)(=O)N2CCOCC2)ccc1N1CCOCC1 | inconclusive: -153% |
| CSc1nsc(SCC(=O)N2CCc3ccccc32)n1 | inactive: 92.3% |
| N/C(=N\OC(=O)CCC1CCCC1)c1ccccc1 | inconclusive: 114% |
| Cc1ccc(S(=O)(=O)Nc2nc(C)c(NC(=O)OCCCl)s2)cc1 | inactive: 105% |
| CCOC(=O)c1nc(-c2ccccc2)oc1N1CCOCC1 | inconclusive: 90.9% |
| OC(C#CCN1CCCC1)(c1ccccc1)c1cccnc1 (configuration not stated) | inconclusive: 54.2% |
| CC(NC(=S)Nc1ccc(S(=O)(=O)N2CCOCC2)cc1)C1CC2CCC1C2 (configuration not stated) | inactive: 96.6% |
| NC(=S)Nc1ccc(F)c(F)c1F | inconclusive: 88.5% |
| COc1ccc(C(=O)c2ccc(CC(=O)O)s2)cc1 | inconclusive: 109% |
| Clc1ccccc1OCCN1CCC(Cc2ccccc2)CC1 | inconclusive: 86.4% |
| COC(=O)C1=C(O)/C(=C/c2cccc(OC)c2O)N=C1C | inconclusive: 44.7% |

Single entries from the list:
Entry of CS(=O)(=O)Nc1cccc(S(=O)(=O)N2CCN(C(=O)c3ccccc3)CC2)c1 under binding response (% of control): inconclusive: 129%
Entry of N#C/C(=C/Nc1ccccc1C(=O)O)C(N)=O under binding response (% of control): inconclusive: 65.9%
Entry of COC(=O)c1ccc(COC(=O)c2ccc(SC)cc2OC)cc1 under binding response (% of control): inactive: 96%

Next results

| SMILES | binding response (% of control) |
| --- | --- |
| COC(=O)NC1(C(F)(F)F)C(=O)Nc2c1c(=O)n(C)c(=O)n2C (configuration not stated) | inconclusive: 104% |
| C/C(=N/N=C1\SCC(=O)N1c1ccccc1)c1ccc(C)cc1 | inconclusive: 103% |
| COc1cc(O)c(C(CC(=O)N2CCN(c3ccccc3)CC2)c2cc(OC)c(OC)c(OC)c2)c(OC)c1 (configuration not stated) | inconclusive: 139% |
| CN1CCN(C2=NC(=O)/C(=C/c3ccccc3OS(=O)(=O)c3ccccc3)S2)CC1 | inconclusive: 80.8% |
| COc1ccccc1NC(=O)N1CCN(Cc2ccc3c(c2)OCO3)CC1 | inconclusive: 69.3% |
| Cc1nc(-c2nc(-c3c(C(=O)NN)noc3C)cs2)cs1 | inconclusive: 92% |
| CSc1n[nH]c(=O)n1C1CCCCC1 | inconclusive: 79.8% |
| O=C(C1CCC(N2C(=O)C3CC=CCC3C2=O)CC1)N1CCCCC1 (configuration not stated) | inactive: 118% |
| CCCN1C(=O)/C(=C\C=C2\N(CC)c3ccccc3C2(C)C)SC1=S | inactive: 137% |
| O=C(Nc1ccccc1)/C(=C/c1ccccc1)NC(=O)c1ccco1 | inconclusive: 98.7% |
| CCc1c(C)nc2nc(NC(C)=O)[nH]n2c1=O | inactive: 94.3% |
| Cc1csc(SCC(=O)NC(=O)NCCC(C)C)n1 | inconclusive: 100% |
| COc1ccc(N(CC(=O)Nc2ccc3c(c2)OCO3)S(=O)(=O)c2ccccc2)cc1OC | inconclusive: 81.1% |
| Cc1c(C(=O)Nc2ccc(F)cc2)cn2c(nc3ccccc32)c1C#N | inconclusive: 47.2% |
| O=[N+]([O-])c1c(Nc2ccccc2O)cc(N2CCOCC2)c2nonc12 | inconclusive: 106% |
| Cc1ccc(NC(=O)Nc2c(Cl)cccc2Cl)cn1 | inconclusive: 395% |
| CCOc1cc(C(=O)CCC(=O)OCC(=O)NC(=O)NCC(C)C)ccc1O | inconclusive: 109% |
| Cc1ccccc1NC(=S)NCc1ccccc1 | inactive: 106% |
| CN(C)c1ccc(NC(=O)COC(=O)c2cc(=O)c3ccccc3o2)cc1 | inactive: 97.8% |
| CCCCNC(=O)C1CC(c2ccc(C(F)(F)F)cc2)=NO1 (configuration not stated) | inconclusive: 101% |
| CCS(=O)(=O)CCSC1OC(COC(C)=O)C(OC(C)=O)C(OC(C)=O)C1OC(C)=O (configuration not stated) | inactive: 86.8% |
| COc1ccc(NC(=O)Nc2ccon2)c(OC)c1 | inactive: 99.4% |
| CN(C)c1ccc(NC(=O)Nc2csc3ccccc23)cc1 | inconclusive: 108% |

| SMILES | binding response (% of control) |
| --- | --- |
| O=C(CSc1ncn[nH]1)Nc1ccc(OCc2ccccc2)cc1 | inactive: 106% |
| COc1ccc(N2CCN(C(=O)Cc3ccc(Br)cc3)CC2)cc1 | inconclusive: 103% |
| CCOc1ccc(NC(=O)c2ccc(CNc3c(N4CCCC4)c(=O)c3=O)cc2)cc1 | inconclusive: 87.1% |
| COC(=O)[C@@H]1C[C@@]2(O)[C@H](O)[C@H](O)[C@H](O)C[C@H]2N1Cc1ccc(C(C)(C)C)cc1 | inconclusive: 99.9% |
| Cc1cccc(Nc2sc(C(=O)c3cc4cc(Cl)ccc4o3)c(N)c2C#N)c1 | inconclusive: 168% |
| COc1cc(C(=O)NNc2nc3cc4c(cc3s2)OCO4)cc(OC)c1OC | inactive: 127% |
| Cc1noc(C)c1CSc1ncnc2sc3c(c12)CCCCC3 | inactive: 96% |
| COC(=O)CC1C(=O)NCCN1C(=O)CSc1nc2ccccc2s1 (configuration not stated) | inconclusive: 101% |
| CCN(CC(=O)Nc1c(F)cccc1F)C(=O)Cc1ccccc1 | inconclusive: 81.3% |
| COc1ccc(OC)c(N2C(N)=C(C#N)C(c3ccc(OC)c(O)c3)C3=C2CC(C)(C)CC3=O)c1 (configuration not stated) | inconclusive: 84% |
| O=C(c1ccc2c(c1)N(Cc1ccccc1F)C(=O)c1ccccc1S2)N1CCOCC1 | inconclusive: 93.9% |
| CCCCCSc1ncccc1C(=O)O | inconclusive: 124% |
| COc1cccc(NC(=S)N(CCc2ccc(OC)c(OC)c2)Cc2ccccn2)c1 | inconclusive: 112% |
| COC(=O)c1oc2c(c1C)C(=O)CCC2 | inconclusive: 109% |
| CC(C)NCC(O)COc1ccc(Br)cc1 (configuration not stated) | inconclusive: 101% |
| COc1cc(C(=O)NC2=C(C#N)CCC2)cc(OC)c1OC | inconclusive: 88.7% |
| Cc1c(NC(=O)CSc2ccccc2F)c(=O)n(-c2ccccc2)n1C | inconclusive: 107% |
| CCN1CCN(c2cc(C)c3cc(NC(=S)N4CCCC(C)C4)ccc3n2)CC1 (configuration not stated) | inconclusive: 109% |
| Fc1ccc(-c2cn(-c3ccccc3)c3[n+]2CCS3)cc1 | inconclusive: 97.6% |
| O=C(c1cc(Cl)cc(Cl)c1)N1CCN(c2cc(C(F)(F)F)nc3ccccc23)CC1 | inconclusive: 178% |
| COc1ccc(S(=O)(=O)NCC2CCCN(C(=O)CC3CCCC3)C2)cc1 (configuration not stated) | inactive: 105% |
| Fc1cccc(/C=C2\CCCC3=C2NC(=S)NC3c2cccc(F)c2)c1 (configuration not stated) | inconclusive: 112% |
| Cc1ccc(CSc2nc3ccccc3c(=O)n2CCCC(=O)NCc2ccco2)cc1 | inactive: 99% |
